Test results as given in patent US20210246189A1.
No constants are given. Whether binding was seen depends on the method and setting. Some results given as binding are weak or reduced against the parent protein; the word gives no strength. Tags and fused reporters may be left off the sequences shown.

Amino acid sequences for entries named in this document (tags omitted). Residues count along the entry.
UniProt P15391, residues 20-556: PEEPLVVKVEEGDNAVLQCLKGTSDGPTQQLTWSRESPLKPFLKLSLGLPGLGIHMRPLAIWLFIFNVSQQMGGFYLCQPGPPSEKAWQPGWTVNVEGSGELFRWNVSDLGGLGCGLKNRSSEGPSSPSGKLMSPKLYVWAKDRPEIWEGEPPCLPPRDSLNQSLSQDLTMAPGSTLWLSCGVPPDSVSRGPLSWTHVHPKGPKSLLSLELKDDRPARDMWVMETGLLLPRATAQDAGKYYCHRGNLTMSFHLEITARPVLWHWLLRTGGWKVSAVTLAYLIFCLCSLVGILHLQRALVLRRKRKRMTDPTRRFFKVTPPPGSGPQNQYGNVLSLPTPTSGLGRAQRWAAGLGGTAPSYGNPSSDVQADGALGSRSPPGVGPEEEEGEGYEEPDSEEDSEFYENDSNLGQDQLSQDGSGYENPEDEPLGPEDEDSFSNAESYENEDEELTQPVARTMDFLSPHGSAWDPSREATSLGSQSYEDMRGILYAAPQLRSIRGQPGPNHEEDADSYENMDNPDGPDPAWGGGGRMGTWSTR

Columns and labels:
[1] = molecular target: CD19 expressed on the surface of living B cells (UniProt P15391); assay: flow cytometry koff-rate measurement on CD20 positive B cells, after D-biotin
[2] = molecular target: CD19 expressed on the surface of living B cells (UniProt P15391); assay: flow cytometry koff-rate measurement on living B cells among PBMCs, after D-biotin

binding [1]: binds | binding [2]: binds
B1: extracellular domain (ECD) of an αCD19 CAR with Strep- and Tub-tag, fluorescently labeled (protein)
chain: DIVMTQAAPSIPVTPGESVSISCRSSKSLLNSNGNTYLYWFLQRPGQSPQLLIYRMSNLASGVPDRFSGSGSGTAFTLRISRVEAEDVGVYYCMQHLEYPFTFGAGTKLELKGSTSGSGKPGSGEGSTKGEVQLQQSGPELIKPGASVKMSCKASGYTFTSYVMHWVKQKPGQGLEWIGYINPYNDGTKYNEKFKGKATLTSDKSSSTAYMELSSLTSEDSAVYYCARGTYYYGSRVFDYWGQGTTLTVSSWSHPQFEKGGGSGGGSGGSSAWSHPQFEKVDSVEGEGEEEGEE
